{"source": "PubChem BioAssay AID1671195 (Yale University, 2021)", "screen": "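Knockdowns that increase or decrease uptake of fluorescent LDL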 (primary screen)", "cell system": "human Huh7 hepatoma cells", "reagent": "siRNA pool against human genes, 18 nM", "time to read-out": "about 2 to 2.5 days of knockdown, then 8 h LDL uptake", "challenge": "DiI-labelled LDL at 30 µg/ml for 8 h, in lipoprotein-deficient serum medium", "read-out": "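Fluorescent LDL signal imaged in cells, scaled to the plate median, robust z-score for each replicate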", "direction": "robust z-score: higher = more LDL uptake after knockdown", "rule for the call": "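a gene counts as active if at least two replicate z-scores exceed ±2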", "note": "In all, the deposit lists about 22,000 reagents; below is an unselected part. About 1,510 of all reagents (6.9%) count as active. 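Active includes knockdowns raising or lowering LDL uptake; positive z-scores mean more uptake, negative mean less.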 Unmarked entries are inactive."}
{"gene": "NMBR (neuromedin B receptor)", "robust z-score, replicate 1": 0.0224, "robust z-score, replicate 2": 0.162, "robust z-score, replicate 3": -1.58}
{"gene": "SLC12A6", "robust z-score, replicate 1": "2.05 (active)", "robust z-score, replicate 2": 1.72, "robust z-score, replicate 3": 2.2}
{"gene": "IFNL2 (interferon lambda 2)", "robust z-score, replicate 1": -0.85, "robust z-score, replicate 2": -0.631, "robust z-score, replicate 3": -0.769}
{"gene": "CEACAM22P (CEA cell adhesion molecule 22, pseudogene)", "robust z-score, replicate 1": -0.0961, "robust z-score, replicate 2": -0.158, "robust z-score, replicate 3": -0.127}
{"gene": "LOC100288637 (OTU deubiquitinase 7A pseudogene)", "robust z-score, replicate 1": 0.937, "robust z-score, replicate 2": 0.652, "robust z-score, replicate 3": 0.931}
{"gene": "USP51 (ubiquitin specific peptidase 51)", "robust z-score, replicate 1": -0.522, "robust z-score, replicate 2": -0.88, "robust z-score, replicate 3": -0.56}
{"gene": "BRI3BP (BRI3 binding protein)", "robust z-score, replicate 1": 0.293, "robust z-score, replicate 2": 0.653, "robust z-score, replicate 3": -0.594}
{"gene": "LINC03048 (long independently transcribed non-coding RNA 3048)", "robust z-score, replicate 1": "2.85 (active)", "robust z-score, replicate 2": 3.2, "robust z-score, replicate 3": 3.71}

Next part; the last 2 above are carried over.
{"gene": "BRI3BP (BRI3 binding protein)", "robust z-score, replicate 1": 0.293, "robust z-score, replicate 2": 0.653, "robust z-score, replicate 3": -0.594}
{"gene": "LINC03048 (long independently transcribed non-coding RNA 3048)", "robust z-score, replicate 1": "2.85 (active)", "robust z-score, replicate 2": 3.2, "robust z-score, replicate 3": 3.71}
{"gene": "LINC02817 (long independently transcribed non-coding RNA 2817)", "robust z-score, replicate 1": -0.807, "robust z-score, replicate 2": -1.01, "robust z-score, replicate 3": -0.984}
{"gene": "NOTCH3 (notch receptor 3)", "robust z-score, replicate 1": -0.397, "robust z-score, replicate 2": -0.183, "robust z-score, replicate 3": -0.717}
{"gene": "RRP9", "robust z-score, replicate 1": 2.24, "robust z-score, replicate 2": -0.105, "robust z-score, replicate 3": 0.56}
{"gene": "SOX21 (SRY-box transcription factor 21)", "robust z-score, replicate 1": -0.137, "robust z-score, replicate 2": -0.0838, "robust z-score, replicate 3": -0.0849}
{"gene": "C10orf53 (chromosome 10 open reading frame 53)", "robust z-score, replicate 1": 0.275, "robust z-score, replicate 2": 0.612, "robust z-score, replicate 3": 0.564}
{"gene": "SPINT2 (serine peptidase inhibitor, Kunitz type 2)", "robust z-score, replicate 1": 0.244, "robust z-score, replicate 2": -0.999, "robust z-score, replicate 3": -1.21}
{"gene": "IL24 (interleukin 24)", "robust z-score, replicate 1": -1.16, "robust z-score, replicate 2": -1.16, "robust z-score, replicate 3": -1.1}
{"gene": "DAND5 (DAN domain BMP antagonist family member 5)", "robust z-score, replicate 1": -0.422, "robust z-score, replicate 2": -0.425, "robust z-score, replicate 3": -0.665}
{"gene": "LOC440094 (retired record)", "robust z-score, replicate 1": 0.68, "robust z-score, replicate 2": 0.824, "robust z-score, replicate 3": 0.824}
{"gene": "MIR100HG (mir-100-let-7a-2-mir-125b-1 cluster host gene)", "robust z-score, replicate 1": 0.0182, "robust z-score, replicate 2": 0.263, "robust z-score, replicate 3": 0.129}
{"gene": "EDRF1 (erythroid differentiation regulatory factor 1)", "robust z-score, replicate 1": -1.22, "robust z-score, replicate 2": -0.0479, "robust z-score, replicate 3": 0.809}
{"gene": "TMEM200A (transmembrane protein 200A)", "robust z-score, replicate 1": "5.56 (active)", "robust z-score, replicate 2": 2.06, "robust z-score, replicate 3": 3.42}
{"gene": "LOC401605 (retired record)", "robust z-score, replicate 1": -1.3, "robust z-score, replicate 2": -1.36, "robust z-score, replicate 3": -1.58}
{"gene": "LINC00548 (long independently transcribed non-coding RNA 548)", "robust z-score, replicate 1": -0.457, "robust z-score, replicate 2": -0.0728, "robust z-score, replicate 3": -0.492}
{"gene": "SYT14P1 (synaptotagmin 14 pseudogene 1)", "robust z-score, replicate 1": 0.566, "robust z-score, replicate 2": 0.0724, "robust z-score, replicate 3": 0.775}
{"gene": "CENPC (centromere protein C)", "robust z-score, replicate 1": 0.531, "robust z-score, replicate 2": 0.893, "robust z-score, replicate 3": 0.592}
